Results taken from paper PMC8478939.
Results are given in words; binding and its absence hold for the method and conditions named. Binding seen in cells or lysates may run through a third protein. Some results given as binding are weak or reduced against the parent protein; the word gives no strength.

The chains behind the UniProt entries cited, without tags or fusion partners.
UniProt P30301: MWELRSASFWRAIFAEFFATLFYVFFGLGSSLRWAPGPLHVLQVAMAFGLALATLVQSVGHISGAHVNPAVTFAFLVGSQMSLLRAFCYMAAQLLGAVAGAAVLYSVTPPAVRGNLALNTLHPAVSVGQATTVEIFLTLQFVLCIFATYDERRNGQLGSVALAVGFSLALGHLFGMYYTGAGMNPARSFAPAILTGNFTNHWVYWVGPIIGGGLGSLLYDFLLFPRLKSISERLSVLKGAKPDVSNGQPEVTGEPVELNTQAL

Target: human aquaporin 0 (AQP0) fused to a split-YFP fragment (human) (UniProt P30301)
Experiment: split reporter; BiFC (split YFP) in living S. cerevisiae, read by fluorescence microscopy (Zeiss Axio Observer Z1, 100x); cells at OD600 = 0.5

human aquaporin 0 (AQP0) fused to a split-YFP fragment (from UniProt P30301 1-263)
binding: binds
